# Laboratory results as given in article PMC6756021.
# Amino acid sequences for entries named in this document (tags omitted). Residues count along the entry.
# UniProt O95994, residues 21-175: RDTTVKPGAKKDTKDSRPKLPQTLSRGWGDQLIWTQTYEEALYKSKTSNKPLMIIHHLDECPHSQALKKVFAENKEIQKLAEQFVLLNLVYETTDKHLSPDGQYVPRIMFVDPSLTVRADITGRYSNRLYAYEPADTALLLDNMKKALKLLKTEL
# UniProt Q96CV9: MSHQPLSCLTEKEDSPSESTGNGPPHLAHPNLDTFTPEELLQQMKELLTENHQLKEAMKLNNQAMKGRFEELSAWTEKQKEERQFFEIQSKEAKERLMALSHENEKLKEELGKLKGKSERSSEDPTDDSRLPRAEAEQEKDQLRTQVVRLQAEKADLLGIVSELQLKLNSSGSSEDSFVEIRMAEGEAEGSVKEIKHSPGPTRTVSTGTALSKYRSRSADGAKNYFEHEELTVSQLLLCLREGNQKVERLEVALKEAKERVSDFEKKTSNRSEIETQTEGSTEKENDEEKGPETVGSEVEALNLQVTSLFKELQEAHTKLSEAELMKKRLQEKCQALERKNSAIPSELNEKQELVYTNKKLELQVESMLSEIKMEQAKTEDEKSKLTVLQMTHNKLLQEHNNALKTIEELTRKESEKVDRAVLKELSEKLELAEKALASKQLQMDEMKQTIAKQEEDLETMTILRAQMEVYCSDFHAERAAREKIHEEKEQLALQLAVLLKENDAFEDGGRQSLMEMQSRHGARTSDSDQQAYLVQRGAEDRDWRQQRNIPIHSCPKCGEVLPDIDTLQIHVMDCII
# Results are given in words; binding and its absence hold for the method and conditions named. In cells and extracts the contact can be indirect.
# Molecular target: Anterior gradient 2 (AGR2), endogenous (human (endogenous in A549)) (UniProt O95994)
# Assay: co-IP; endogenous proteins; lysates (RIPA buffer) of MG132-treated cells (A549 named for Fig. 6b) precipitated with anti-AGR2 antibody and protein G plus-agarose, 4 °C overnight; blot for the autophagy receptor
row,Molecule,binding
1,"OPTN, endogenous (from UniProt Q96CV9 1-577)",no binding
2,"p62, endogenous (from UniProt Q13501 1-440)",no binding
3,"NDP52, endogenous (protein, UniProt Q13137 1-446) MEETIKDPPTSAVLLDHCHFSQVIFNSVEKFYIPGGDVTCHYTFTQHFIPRRKDWIGIFRVGWKTTREYYTFMWVTLPIDLNNKSAKQQEVQFKAYYLPKDDEYYQFCYVDEDGVVRGASIPFQFRPENEEDILVVTTQGEVEEIEQHNKELCKENQELKDSCISLQKQNSDMQAELQKKQEELETLQSINKKLELKVKEQKDYWETELLQLKEQNQKMSSENEKMGIRVDQLQAQLSTQEKEMEKLVQGDQDKTEQLEQLKKENDHLFLSLTEQRKDQKKLEQTVEQMKQNETTAMKKQQELMDENFDLSKRLSENEIICNALQRQKERLEGENDLLKRENSRLLSYMGLDFNSLPYQVPTSDEGGARQNPGLAYGNPYSGIQESSSPSPLSIKKCPICKADDICDHTLEQQQMQPLCFNCPICDKIFPATEKQIFEDHVFCHSL",no binding
